± gives the standard deviation of the averaged measurements. Small differences around the control level are noise.
Columns and labels:
Experiment in all cases: level (log10 ratio to DMSO vehicle control); higher = higher biomarker level / cell amount than vehicle control
[1] = compound: O=C(O)C(F)(F)OC(F)(F)C(F)(F)OC(F)(F)C(=O)O [Perfluoro-3,6-dioxaoctane-1,8-dioic acid]; settings: 2200 nM; in DMSO
Protocol: (§1)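 BioMAP Diversity Plus panel of 12 human primary cell co-culture systems (3C, 4H, LPS, SAg, BT, BF4T, BE3C, CASM3C, HDF3CGF, KF3CT, MyoF, Mphg). Compounds were added 1 h before stimulation and left for 24 h (MyoF 48 h; BT 72 h for soluble read-outs or 6 d for IgG). Biomarkers were read by ELISA, cytotoxicity by SRB, PBMC viability and proliferation by Alamar Blue. Each well value was divided by the mean of 8 DMSO control wells on the same plate and log10 transformed; duplicate blinded samples were tested at 4 concentrations.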

[2] = compound: O=S(=O)(Cl)C(F)(F)C(F)(F)C(F)(F)C(F)(F)C(F)(F)C(F)(F)C(F)(F)C(F)(F)F [Perfluoro-1-octanesulfonyl chloride]; settings: 2200 nM; in DMSO
Protocol: as §1

[3] = compound: O=C(O)C(F)(F)OC(F)(F)C(F)(F)OC(F)(F)C(F)(F)C(F)(F)C(F)(F)F [Perfluoro-3,6-dioxadecanoic acid]; settings: 2200 nM; in DMSO
Protocol: as §1

[4] = compound: OCCC(F)(F)C(F)(F)C(F)(F)C(F)(F)C(F)(F)C(F)(F)C(F)(F)C(F)(F)F [8:2 Fluorotelomer alcohol]; settings: 2200 nM; in DMSO
Protocol: as §1

Perfluorobutanoic acid = compound: O=C(O)C(F)(F)C(F)(F)C(F)(F)F [Perfluorobutanoic acid]; settings: 2200 nM; in DMSO
Protocol: as §1

[5] = compound: C=C(C)C(=O)OCC(F)(F)C(F)(F)C(F)(F)F [2,2,3,3,4,4,4-Heptafluorobutyl methacrylate]; settings: 2200 nM; in DMSO
Protocol: as §1

[6] = compound: FC(F)(F)C(F)(F)C(F)(F)C(F)(F)C(F)(F)C(F)(F)C(F)(F)I [1-Iodopentadecafluoroheptane]; settings: in DMSO
Protocol: as §1

Perfluorooctanamide = compound: NC(=O)C(F)(F)C(F)(F)C(F)(F)C(F)(F)C(F)(F)C(F)(F)C(F)(F)F [Perfluorooctanamide]; settings: 2200 nM; in DMSO
Protocol: as §1

[7] = compound: O=C(O)C(F)(F)C(F)(F)C(F)(F)C(F)(F)C(F)(F)C(F)(F)C(F)(F)C(F)F [9-H-Perfluorononanoic acid]; settings: 2200 nM; in DMSO
Protocol: as §1

[8] = compound: O=C(O)C(F)(F)C(F)(F)OC(F)(F)F [Perfluoro-3-methoxypropanoic acid]; settings: 2200 nM; in DMSO
Protocol: as §1

[9] = compound: FC(F)C(F)(F)COCC1CO1 [((2,2,3,3-Tetrafluoropropoxy)methyl)oxirane]; settings: 2200 nM; in DMSO
Protocol: as §1

[10] = compound: C=CC(=O)OCC(F)(F)C(F)(F)C(F)(F)C(F)(F)COC(=O)C=C [1H,1H,6H,6H-Perfluorohexane-1,6-diol diacrylate]; settings: 2200 nM; in DMSO
Protocol: as §1

[11] = compound: O=P(O)(O)CCC(F)(F)C(F)(F)C(F)(F)C(F)(F)C(F)(F)C(F)(F)C(F)(F)C(F)(F)F [((Perfluorooctyl)ethyl)phosphonic acid]; settings: 2200 nM; in DMSO
Protocol: as §1

Perfluoropropanoic acid = compound: O=C(O)C(F)(F)C(F)(F)F [Perfluoropropanoic acid]; settings: 2200 nM; in DMSO
Protocol: as §1

[12] = compound: O=C(O)C=CC(F)(C(F)(F)F)C(F)(F)F [3-(Perfluoroisopropyl)-2-propenoic acid]; settings: in DMSO
Protocol: as §1

[13] = compound: OCC(F)(F)C(F)(F)C(F)(F)C(F)(F)C(F)(F)C(F)(F)C(F)(F)C(F)(F)C(F)(F)C(F)(F)C(F)(F)F [11:1 Fluorotelomer alcohol]; settings: in DMSO
Protocol: as §1

[14] = compound: FC(F)(F)C(F)(F)C(F)(F)C(F)(F)C(F)(F)C(F)(F)C(F)(F)CCI [1-Iodo-1H,1H,2H,2H-perfluorononane]; settings: in DMSO
Protocol: as §1

Perfluoroundecanoic acid = compound: O=C(O)C(F)(F)C(F)(F)C(F)(F)C(F)(F)C(F)(F)C(F)(F)C(F)(F)C(F)(F)C(F)(F)C(F)(F)F [Perfluoroundecanoic acid]; settings: in DMSO
Protocol: as §1

CASM3C:IL-6
level (log10) [1]: 0.022 ± 0.1 | level (log10) [2]: 0.018 ± 0.065 | level (log10) [3]: 0.0265 ± 0.053 | level (log10) [4]: 0.0025 ± 0.036 | level (log10) (Perfluorobutanoic acid): 0.0125 ± 0.036 | level (log10) [5]: 0.024 ± 0.059 | level (log10) ([6]; 740 nM): 0.015 ± 0.02 | level (log10) ([6]; 2200 nM): 0.032 ± 0.013 | level (log10) ([6]; 6700 nM): -0.0425 ± 0.026 | level (log10) ([6]; 20000 nM): -0.0035 ± 0.053 | level (log10) (Perfluorooctanamide): 0.0015 ± 0.0078 | level (log10) [7]: 0.0095 ± 0.06 | level (log10) [8]: 0.03 ± 0.1 | level (log10) [9]: 0.0115 ± 0.059 | level (log10) [10]: 0.035 ± 0.1 | level (log10) [11]: 0.0185 ± 0.093 | level (log10) (Perfluoropropanoic acid): 0.013 ± 0.0014 | level (log10) ([12]; 2200 nM): 0.0155 ± 0.046 | level (log10) ([12]; 6700 nM): -0.035 ± 0.011 | level (log10) ([12]; 20000 nM): -0.0525 ± 0.00071 | level (log10) ([12]; 60000 nM): 0.001 ± 0.092 | level (log10) ([13]; 370 nM): 0.0085 ± 0.03 | level (log10) ([13]; 1100 nM): -0.0065 ± 0.00071 | level (log10) ([13]; 3300 nM): -0.022 ± 0.025 | level (log10) ([13]; 10000 nM): 0.005 ± 0.02 | level (log10) ([14]; 740 nM): 0.0165 ± 0.04 | level (log10) ([14]; 2200 nM): -0.017 ± 0.0028 | level (log10) ([14]; 6700 nM): -0.0105 ± 0.013 | level (log10) ([14]; 20000 nM): 0.0315 ± 0.056 | level (log10) (Perfluoroundecanoic acid; 740 nM): -0.0225 ± 0.032 | level (log10) (Perfluoroundecanoic acid; 2200 nM): -0.0165 ± 0.0035

4H:CCL2/MCP-1
level (log10) [1]: 0.025 ± 0.045 | level (log10) [2]: 0.0015 ± 0.042 | level (log10) [3]: 0.025 ± 0.045 | level (log10) [4]: 0.003 ± 0.058 | level (log10) (Perfluorobutanoic acid): -0.0125 ± 0.00071 | level (log10) [5]: 0.01 ± 0.028 | level (log10) ([6]; 740 nM): -0.011 ± 0.014 | level (log10) ([6]; 2200 nM): -0.019 ± 0.018 | level (log10) ([6]; 6700 nM): -0.015 ± 0.033 | level (log10) ([6]; 20000 nM): 0.0095 ± 0.037 | level (log10) (Perfluorooctanamide): 0.0035 ± 0.036 | level (log10) [7]: -0.0095 ± 0.096 | level (log10) [8]: 0.0215 ± 0.061 | level (log10) [9]: 0.043 ± 0.028 | level (log10) [10]: -0.0085 ± 0.005 | level (log10) [11]: 0.015 ± 0.027 | level (log10) (Perfluoropropanoic acid): -0.02 ± 0.011 | level (log10) ([12]; 2200 nM): 0.008 ± 0.048 | level (log10) ([12]; 6700 nM): 0.008 ± 0.025 | level (log10) ([12]; 20000 nM): -0.0105 ± 0.022 | level (log10) ([12]; 60000 nM): 0.0005 ± 0.0064 | level (log10) ([13]; 370 nM): 0.0375 ± 0.056 | level (log10) ([13]; 1100 nM): 0.0335 ± 0.033 | level (log10) ([13]; 3300 nM): 0.0495 ± 0.00071 | level (log10) ([13]; 10000 nM): 0.0835 ± 0.023 | level (log10) ([14]; 740 nM): 0.0095 ± 0.11 | level (log10) ([14]; 2200 nM): -0.0495 ± 0.012 | level (log10) ([14]; 6700 nM): -0.0175 ± 0.019 | level (log10) ([14]; 20000 nM): 0.0395 ± 0.1 | level (log10) (Perfluoroundecanoic acid; 740 nM): -0.0045 ± 0.044 | level (log10) (Perfluoroundecanoic acid; 2200 nM): -0.024 ± 0.0014

HDF3CGF:CXCL8/IL-8
level (log10) [1]: -0.005 ± 0.0085 | level (log10) [2]: -0.0065 ± 0.0021 | level (log10) [3]: 0.0015 ± 0.0064 | level (log10) [4]: -0.004 ± 0.021 | level (log10) (Perfluorobutanoic acid): -0.004 ± 0.018 | level (log10) [5]: 0.001 ± 0.0085 | level (log10) ([6]; 740 nM): 0 ± 0.017 | level (log10) ([6]; 2200 nM): -0.0025 ± 0.0092 | level (log10) ([6]; 6700 nM): -0.0055 ± 0.00071 | level (log10) ([6]; 20000 nM): -0.001 | level (log10) (Perfluorooctanamide): 0.0015 ± 0.0078 | level (log10) [7]: 0.009 ± 0.0042 | level (log10) [8]: -0.0005 ± 0.011 | level (log10) [9]: -0.0035 ± 0.00071 | level (log10) [10]: -0.004 ± 0.0071 | level (log10) [11]: 0.0005 ± 0.0035 | level (log10) (Perfluoropropanoic acid): 0.003 ± 0.0042 | level (log10) ([12]; 2200 nM): -0.011 ± 0.02 | level (log10) ([12]; 6700 nM): -0.008 ± 0.0042 | level (log10) ([12]; 20000 nM): 0.004 ± 0.011 | level (log10) ([12]; 60000 nM): 0.0065 ± 0.013 | level (log10) ([13]; 370 nM): 0 ± 0.0099 | level (log10) ([13]; 1100 nM): -0.002 ± 0.0057 | level (log10) ([13]; 3300 nM): -0.007 | level (log10) ([13]; 10000 nM): -0.001 | level (log10) ([14]; 740 nM): 0.0165 ± 0.0092 | level (log10) ([14]; 2200 nM): 0.0025 ± 0.005 | level (log10) ([14]; 6700 nM): 0.002 ± 0.0014 | level (log10) ([14]; 20000 nM): 0.0165 ± 0.019 | level (log10) (Perfluoroundecanoic acid; 740 nM): 0.0025 ± 0.018 | level (log10) (Perfluoroundecanoic acid; 2200 nM): -0.003 ± 0.0042

BE3C:PAI-I
level (log10) [1]: -0.017 ± 0.033 | level (log10) [2]: 0.0165 ± 0.03 | level (log10) [3]: 0.0185 ± 0.019 | level (log10) [4]: -0.0195 ± 0.011 | level (log10) (Perfluorobutanoic acid): -0.0095 ± 0.021 | level (log10) [5]: -0.0395 ± 0.046 | level (log10) ([6]; 740 nM): -0.02 ± 0.011 | level (log10) ([6]; 2200 nM): -0.006 ± 0.024 | level (log10) ([6]; 6700 nM): -0.0185 ± 0.047 | level (log10) ([6]; 20000 nM): -0.0245 ± 0.037 | level (log10) (Perfluorooctanamide): -0.0055 ± 0.015 | level (log10) [7]: 0.041 ± 0.055 | level (log10) [8]: -0.028 ± 0.0099 | level (log10) [9]: 0.0035 ± 0.025 | level (log10) [10]: -0.036 ± 0.069 | level (log10) [11]: 0.013 ± 0.044 | level (log10) (Perfluoropropanoic acid): -0.0175 ± 0.00071 | level (log10) ([12]; 2200 nM): 0.0005 ± 0.018 | level (log10) ([12]; 6700 nM): 0.0105 ± 0.00071 | level (log10) ([12]; 20000 nM): -0.003 ± 0.0042 | level (log10) ([12]; 60000 nM): 0.0065 ± 0.023 | level (log10) ([13]; 370 nM): -0.029 ± 0.065 | level (log10) ([13]; 1100 nM): -0.045 ± 0.057 | level (log10) ([13]; 3300 nM): -0.0855 ± 0.054 | level (log10) ([13]; 10000 nM): -0.0555 ± 0.07 | level (log10) ([14]; 740 nM): 0.015 ± 0.051 | level (log10) ([14]; 2200 nM): -0.0165 ± 0.03 | level (log10) ([14]; 6700 nM): 0.016 ± 0.0071 | level (log10) ([14]; 20000 nM): -0.01 ± 0.0099 | level (log10) (Perfluoroundecanoic acid; 740 nM): -0.0715 ± 0.076 | level (log10) (Perfluoroundecanoic acid; 2200 nM): -0.073 ± 0.016

Reference: the supplement of paper PMC10331698
